The subject of the test is MDA-MB-468. Briefly: phospho-S6 immunofluorescence (DAPI-normalised), per-plate z-score; higher = higher phospho-S6 signal (less pathway suppression). As to conditions: 24 h. As for the experimental part: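 GPCR-targeted compound library (MedChemExpress HY-L006) tested on MDA-MB-468 PTEN-null TNBC cells in 384-well plates at 0.1, 1 or 10 uM, combined with vehicle, GDC0941 450 nM or lapatinib 1 uM, for 24 h. Phospho-S6 (S240/244) immunofluorescence normalised to DAPI and expressed as a per-plate z-score; values are the mean of biological triplicates.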

[1] abbreviates: compound 0.1 µM, co-treatment: GDC0941 450 nM.
The mark [2] stands for this setting: compound 0.1 µM, co-treatment: lapatinib 1 uM.
[3] abbreviates: compound 0.1 µM, co-treatment: vehicle.
Where [4] appears, read: compound 1 µM, co-treatment: GDC0941 450 nM.
Setting [5] is: compound 1 µM, co-treatment: lapatinib 1 uM.
Where [6] appears, read: compound 1 µM, co-treatment: vehicle.
The mark [7] stands for this setting: compound 10 µM, co-treatment: GDC0941 450 nM.
Where [8] appears, read: compound 10 µM, co-treatment: lapatinib 1 uM.
The mark [9] stands for this setting: compound 10 µM, co-treatment: vehicle.

Where a name gives a salt, the structure may show the parent alone. Some of the results follow. Most values lie within the scatter of the assay; repeated measurements hardly agree.

Data on four compounds can be found in the supplement of paper PMC7411640.

Take `CC(C)(Cc1ccc2ccccc2c1)NC[C@@H](O)COc1cccc(Cl)c1C#N` [NPS-2143 (hydrochloride)]: the “phospho-S6 immunofluorescence (z-score)” value reads like this: under setting [1], -1.13; under setting [2], -0.77; under setting [3], 0.07; under setting [4], -8.6; under setting [5], -17.6; under setting [6], -12.7. For the same compound, the “phospho-S6 immunofluorescence (z-score)” value by setting is: under setting [7], -6; under setting [8], -12.2; under setting [9], -9.7.
`O=C(Nc1ccc([N+](=O)[O-])cc1O)Nc1ccccc1Br`: the “phospho-S6 immunofluorescence (z-score)” value under setting [1] worked out at 4.67; the “phospho-S6 immunofluorescence (z-score)” value under setting [2] came to 6.56; the “phospho-S6 immunofluorescence (z-score)” value under setting [3] turned out to be 3.81; the “phospho-S6 immunofluorescence (z-score)” value under setting [4] was -2.21; the “phospho-S6 immunofluorescence (z-score)” value under setting [5] is 5.62; the “phospho-S6 immunofluorescence (z-score)” value under setting [6] amounted to 2.77. The “phospho-S6 immunofluorescence (z-score)” value was -1.44 under setting [7], 0.89 under setting [8] and -0.39 under setting [9].
As to `CCCCc1ccc(NS(=O)(=O)c2ccc(F)cc2)cc1`, the “phospho-S6 immunofluorescence (z-score)” value under setting [1] is -0.74; the “phospho-S6 immunofluorescence (z-score)” value under setting [2] is -0.43; the “phospho-S6 immunofluorescence (z-score)” value under setting [3] is -0.49; the “phospho-S6 immunofluorescence (z-score)” value under setting [4] is -1.74; the “phospho-S6 immunofluorescence (z-score)” value under setting [5] was -1.51; the “phospho-S6 immunofluorescence (z-score)” value under setting [6] was -1.36. The “phospho-S6 immunofluorescence (z-score)” value is, setting by setting: under setting [7], -3.59; under setting [8], -8.48; under setting [9], -10.2.
As for `Cc1cc(C(C)(C)C)cc(C)c1CC1=NCCN1` [Xylometazoline (hydrochloride)], the “phospho-S6 immunofluorescence (z-score)” value reads like this: under setting [1], 0.54; under setting [2], 0.24; under setting [3], 0.35; under setting [4], -0.27; under setting [5], -0.26; under setting [6], -0.12. Further, the “phospho-S6 immunofluorescence (z-score)” value is 0.43 under setting [7], -0.12 under setting [8] and -0.38 under setting [9].
